Source: PubChem BioAssay AID1671195 (Yale University, 2021)

Test: 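Regulators of LDL receptor activity judged by labelled LDL uptake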 (primary screen)
Cells: human Huh7 hepatoma cells
Reagents: siRNA pool against human genes, 18 nM
Time to read-out: about 2 to 2.5 days of knockdown, then 8 h LDL uptake
Conditions: DiI-labelled LDL at 30 µg/ml for 8 h, in lipoprotein-deficient serum medium
Detection: 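Per-cell DiI-LDL intensity by automated imaging; well means scaled to the plate median and given as a robust z-score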
Direction: robust z-score: higher = more LDL uptake after knockdown
Active means: 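Active when two or more replicates show a robust z-score above 2 or below -2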
In all, the deposit lists about 22,000 reagents; below is a random part of them. About 1,510 of them (6.9%) were called active. 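Active includes knockdowns raising or lowering LDL uptake; positive z-scores mean more uptake, negative mean less.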

With LOC442130 (retired record) [SID442902865], how do the results read?
robust z-score, replicate 1: -1.04; robust z-score, replicate 2: -1.32; robust z-score, replicate 3: -1.13; outcome: inactive

For ABCA1 [SID442886626], how do the results read?
robust z-score, replicate 1: 1.33; robust z-score, replicate 2: 1.27; robust z-score, replicate 3: 0.712; outcome: inactive

What did the screen give for RPL7P47 [SID442889427]?
robust z-score, replicate 1: 0.768; robust z-score, replicate 2: 0.697; robust z-score, replicate 3: 0.217; outcome: inactive

For PNMA1 [SID442897226], what was measured?
robust z-score, replicate 1: -0.988; robust z-score, replicate 2: 0.277; robust z-score, replicate 3: -0.37; outcome: inactive

What did the screen give for FBXO21 [SID442890108]?
robust z-score, replicate 1: 0.327; robust z-score, replicate 2: 1.99; robust z-score, replicate 3: -0.932; outcome: inactive

What did the screen give for MROH2B [SID442899287]?
robust z-score, replicate 1: -0.17; robust z-score, replicate 2: -0.157; robust z-score, replicate 3: -1.48; outcome: inactive

What did the screen give for PPP2R3A [SID442885081]?
robust z-score, replicate 1: 2.18; robust z-score, replicate 2: 1.5; robust z-score, replicate 3: 1.39; outcome: inactive

What did the screen give for TLK2 [SID442894491]?
robust z-score, replicate 1: 0.105; robust z-score, replicate 2: -0.419; robust z-score, replicate 3: 0.107; outcome: inactive

With CD300E [SID442892418], what does the deposit list?
robust z-score, replicate 1: -0.769; robust z-score, replicate 2: 1.78; robust z-score, replicate 3: -0.504; outcome: inactive

What is on record for CDK3 [SID442900024]?
robust z-score, replicate 1: -0.384; robust z-score, replicate 2: -1.04; robust z-score, replicate 3: -0.68; outcome: inactive

What is on record for CISD1 [SID442888178]?
robust z-score, replicate 1: 0.167; robust z-score, replicate 2: -0.0728; robust z-score, replicate 3: 2.22; outcome: inactive

With SLC39A4 [SID442902977], what does the deposit list?
robust z-score, replicate 1: -1.52; robust z-score, replicate 2: -1.01; robust z-score, replicate 3: -1.03; outcome: inactive

How did the screen score RAB31 [SID442891367]?
robust z-score, replicate 1: 0.235; robust z-score, replicate 2: 0.113; robust z-score, replicate 3: 0.537; outcome: inactive

Part of the list above, reformatted.
| gene symbol | PubChem SID | robust z-score, replicate 1 | robust z-score, replicate 2 | robust z-score, replicate 3 | outcome |
| --- | --- | --- | --- | --- | --- |
| ABCA1 | SID442886626 | 1.33 | 1.27 | 0.712 | inactive |
| RPL7P47 | SID442889427 | 0.768 | 0.697 | 0.217 | inactive |
| PNMA1 | SID442897226 | -0.988 | 0.277 | -0.37 | inactive |

Next records:
With TC2N [SID442896670], what does the deposit list?
robust z-score, replicate 1: -0.123; robust z-score, replicate 2: -0.485; robust z-score, replicate 3: -0.29; outcome: inactive

For NSUN3 [SID442898072], what was measured?
robust z-score, replicate 1: -0.222; robust z-score, replicate 2: -0.514; robust z-score, replicate 3: -0.639; outcome: inactive

What did the screen give for NELFCD [SID442894570]?
robust z-score, replicate 1: 1.2; robust z-score, replicate 2: 0.497; robust z-score, replicate 3: -1.93; outcome: inactive

How did the screen score MRAP2 [SID442895749]?
robust z-score, replicate 1: -0.451; robust z-score, replicate 2: -0.0242; robust z-score, replicate 3: -0.132; outcome: inactive

Which result is listed for PDCD11 [SID442887490]?
robust z-score, replicate 1: 0.869; robust z-score, replicate 2: 0.921; robust z-score, replicate 3: 0.919; outcome: inactive

How did the screen score RABEPK [SID442899960]?
robust z-score, replicate 1: -0.626; robust z-score, replicate 2: -1.17; robust z-score, replicate 3: -0.274; outcome: inactive

For KRT2 [SID442884682], what does the deposit list?
robust z-score, replicate 1: 1.62; robust z-score, replicate 2: 3.22; robust z-score, replicate 3: 1.12; outcome: inactive

How did the screen score PCSK1N [SID442898671]?
robust z-score, replicate 1: -0.348; robust z-score, replicate 2: -0.831; robust z-score, replicate 3: -0.396; outcome: inactive

With NEUROD6 [SID442885556], what does the deposit list?
robust z-score, replicate 1: 1.36; robust z-score, replicate 2: 1.33; robust z-score, replicate 3: 1.71; outcome: inactive

For OR2H1 [SID442900017], what was measured?
robust z-score, replicate 1: 0.141; robust z-score, replicate 2: -0.22; robust z-score, replicate 3: -2.02; outcome: inactive

What is on record for NDUFB1 [SID442890006]?
robust z-score, replicate 1: 0.57; robust z-score, replicate 2: 0.625; robust z-score, replicate 3: 0.233; outcome: inactive

With PLGRKT [SID442900689], what was measured?
robust z-score, replicate 1: -1.36; robust z-score, replicate 2: -0.965; robust z-score, replicate 3: -0.0565; outcome: inactive

How did the screen score IGKV1ORY-1 [SID442895980]?
robust z-score, replicate 1: -0.196; robust z-score, replicate 2: -0.185; robust z-score, replicate 3: -0.296; outcome: inactive

With DNAJC27 [SID442891075], what was measured?
robust z-score, replicate 1: 1.34; robust z-score, replicate 2: -0.404; robust z-score, replicate 3: 0.0713; outcome: inactive

What is on record for SHISA6 [SID442888857]?
robust z-score, replicate 1: 0.792; robust z-score, replicate 2: 0.401; robust z-score, replicate 3: 0.754; outcome: inactive

Which result is listed for LOC346910 (retired record) [SID442893115]?
robust z-score, replicate 1: 0.403; robust z-score, replicate 2: 0.144; robust z-score, replicate 3: -0.286; outcome: inactive

For PRPF19 [SID442883495], how do the results read?
robust z-score, replicate 1: 2.88; robust z-score, replicate 2: 2.88; robust z-score, replicate 3: 2.61; outcome: active
